Reference: paper doi:10.1101/2025.06.20.660829
No constants are given. Whether binding was seen depends on the method and setting. In cells and extracts the contact can be indirect. Binding can be weak; no strength is given. For some of these results: Sequences can lack the tags named with a protein.

The chains behind the UniProt entries cited, without tags or fusion partners. Where a name states a change or a piece, a line headed by the entry shows the natural chain unless it says otherwise.
UniProt Q01668: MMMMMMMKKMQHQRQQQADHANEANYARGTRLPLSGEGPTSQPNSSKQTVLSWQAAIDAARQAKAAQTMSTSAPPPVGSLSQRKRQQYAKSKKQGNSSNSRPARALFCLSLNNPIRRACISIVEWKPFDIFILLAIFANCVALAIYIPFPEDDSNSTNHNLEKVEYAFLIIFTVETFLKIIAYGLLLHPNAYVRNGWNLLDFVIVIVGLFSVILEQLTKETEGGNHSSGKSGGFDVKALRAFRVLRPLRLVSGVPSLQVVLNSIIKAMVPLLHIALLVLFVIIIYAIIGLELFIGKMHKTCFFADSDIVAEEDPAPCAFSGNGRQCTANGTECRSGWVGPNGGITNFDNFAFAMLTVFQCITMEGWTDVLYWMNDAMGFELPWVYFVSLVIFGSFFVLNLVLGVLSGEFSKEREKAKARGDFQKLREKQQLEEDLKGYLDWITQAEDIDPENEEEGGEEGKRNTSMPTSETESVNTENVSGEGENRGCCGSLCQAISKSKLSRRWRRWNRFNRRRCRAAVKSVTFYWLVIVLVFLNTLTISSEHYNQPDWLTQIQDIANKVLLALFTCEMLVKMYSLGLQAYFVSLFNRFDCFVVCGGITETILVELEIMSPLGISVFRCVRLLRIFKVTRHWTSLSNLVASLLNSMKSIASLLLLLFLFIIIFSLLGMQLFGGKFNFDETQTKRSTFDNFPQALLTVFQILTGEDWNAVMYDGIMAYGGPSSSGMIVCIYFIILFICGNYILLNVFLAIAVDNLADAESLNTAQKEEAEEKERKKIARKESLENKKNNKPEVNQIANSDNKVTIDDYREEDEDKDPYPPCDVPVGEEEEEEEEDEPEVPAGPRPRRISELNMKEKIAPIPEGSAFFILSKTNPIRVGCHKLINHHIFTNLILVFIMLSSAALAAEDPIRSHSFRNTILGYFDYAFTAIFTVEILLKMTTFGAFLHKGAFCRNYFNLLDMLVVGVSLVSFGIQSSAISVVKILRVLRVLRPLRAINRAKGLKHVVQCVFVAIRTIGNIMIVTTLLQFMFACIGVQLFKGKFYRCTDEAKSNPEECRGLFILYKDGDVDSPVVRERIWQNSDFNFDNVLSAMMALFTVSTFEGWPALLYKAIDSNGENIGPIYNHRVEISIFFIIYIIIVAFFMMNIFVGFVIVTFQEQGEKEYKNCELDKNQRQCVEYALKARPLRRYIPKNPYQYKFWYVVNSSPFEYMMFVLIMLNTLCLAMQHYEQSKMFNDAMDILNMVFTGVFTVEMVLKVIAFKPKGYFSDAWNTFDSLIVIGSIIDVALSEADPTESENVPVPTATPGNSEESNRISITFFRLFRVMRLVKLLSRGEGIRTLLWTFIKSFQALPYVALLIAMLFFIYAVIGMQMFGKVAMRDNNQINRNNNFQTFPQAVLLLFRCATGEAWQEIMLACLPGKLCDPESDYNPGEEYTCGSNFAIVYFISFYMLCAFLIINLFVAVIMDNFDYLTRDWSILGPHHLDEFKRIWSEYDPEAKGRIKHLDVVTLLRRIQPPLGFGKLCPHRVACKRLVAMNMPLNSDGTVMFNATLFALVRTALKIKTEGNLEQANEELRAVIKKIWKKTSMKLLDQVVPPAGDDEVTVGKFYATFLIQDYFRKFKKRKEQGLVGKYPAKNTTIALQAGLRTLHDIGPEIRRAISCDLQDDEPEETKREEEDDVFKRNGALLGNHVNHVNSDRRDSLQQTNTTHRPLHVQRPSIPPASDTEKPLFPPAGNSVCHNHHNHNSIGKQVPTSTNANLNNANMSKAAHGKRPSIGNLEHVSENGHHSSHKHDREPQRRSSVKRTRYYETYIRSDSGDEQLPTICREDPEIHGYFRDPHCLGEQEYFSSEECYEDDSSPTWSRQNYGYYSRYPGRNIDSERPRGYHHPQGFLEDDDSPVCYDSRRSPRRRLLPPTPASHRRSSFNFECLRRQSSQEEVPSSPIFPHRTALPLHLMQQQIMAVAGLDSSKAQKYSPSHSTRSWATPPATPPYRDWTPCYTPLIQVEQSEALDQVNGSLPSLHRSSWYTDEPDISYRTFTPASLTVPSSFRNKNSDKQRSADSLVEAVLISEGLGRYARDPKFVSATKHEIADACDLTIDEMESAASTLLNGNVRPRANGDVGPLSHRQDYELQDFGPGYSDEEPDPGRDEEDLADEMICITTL

target: 3xFlag-DCTD (distal C-terminus of CaV1.3 α1D) (not stated (human or rat cDNA cloned)) (UniProt Q01668); test: co-IP

binding, binds:
YFP-Ng_S36D-Myc-His (from UniProt Q04940 1-78)

target: 3xFlag-DCTD (distal C-terminus of CaV1.3 α1D) (not stated (human or rat cDNA cloned)) (UniProt Q01668); test: co-IP; remark: another data set of the same source

binding, binds:
Neurogranin (Ng), wild type, YFP-tagged, phosphorylated by PKC (cells treated with PMA) (from UniProt Q04940 1-78)
YFP-Ng_S36D-Myc-His (from UniProt Q04940 1-78)
YFP-IQD (IQ domain of CaV1.3 α1D) (from UniProt Q01668-1) (domain or fragment)
CFP-Ng_S36D (from UniProt Q04940 1-78)
ANAAAAKIQASFRGHMARKKIK (domain or fragment, UniProt Q04940 26-47) [YFP-IQNg]
AHKAATKIQASFRGHITRKKLKDEKKGDAP (domain or fragment, UniProt P07936 31-60) [YFP-IQNm (IQ domain of neuromodulin)]
